Data as given in PubChem BioAssay AID1671195 (Yale University, 2021).
Test: 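Regulators of LDL receptor activity judged by labelled LDL uptake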 (primary screen). Cell system: human Huh7 hepatoma cells. Reagents: siRNA pool against human genes, 18 nM. Timing: about 2 to 2.5 days of knockdown, then 8 h LDL uptake. Treatment: DiI-labelled LDL at 30 µg/ml for 8 h, in lipoprotein-deficient serum medium. Measurement: 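Per-cell DiI-LDL intensity by automated imaging; well means scaled to the plate median and given as a robust z-score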. Direction: robust z-score: higher = more LDL uptake after knockdown. Call rule: 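a gene counts as active if at least two replicate z-scores exceed ±2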.
The whole screen tested about 22,000 reagents; below is a part drawn at random. Of all reagents, about 1,510 (6.9%) are marked active. 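Active includes knockdowns raising or lowering LDL uptake; positive z-scores mean more uptake, negative mean less.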 Entries without a mark were called inactive.

no.	Gene	robust z-score, replicate 1	robust z-score, replicate 2	robust z-score, replicate 3
1	FKRP (GeneID 79147)	-0.578	-0.103	-0.639
2	CACNA1C (GeneID 775)	0.759	-0.48	0.391
3	TBC1D5 (GeneID 9779)	-0.763	-1.06	0.48
4	RNF114 (GeneID 55905)	-1.04	-0.796	-0.795
5	TRIM6 (GeneID 117854)	1.03	0.198	1.17
6	USPL1 (GeneID 10208)	0.295	-0.749	0.108
7	OR5K4 (GeneID 403278)	0.122	0.209	-0.105
8	SIGLEC10 (GeneID 89790)	-0.208	-1.41	-0.016
9	TMEM40 (GeneID 55287)	0.777	1.95	0.88
10	RPGRIP1 (GeneID 57096)	1.06	0.0209	0.0149
11	TPP2 (GeneID 7174)	1.83	3.2	1.54
12	LHX3 (GeneID 8022)	-0.619	-0.319	0.159
13	GALT (GeneID 2592)	1.54	0.903	1.5
14	PEX26 (GeneID 55670)	-0.127	-0.107	0.418
15	SAMD4A (GeneID 23034)	0.583	-0.258	0.176
16	C1orf74 (GeneID 148304)	0.917	-0.269	0.592
17	TUBGCP4 (GeneID 27229)	-1.79	-1.13	-1.67
18	BCKDHA (GeneID 593)	1.48	1.11	1.11
19	SH3TC2-DT (GeneID 255187)	0.0217	0.305	-0.0213
20	INVS (GeneID 27130)	-2.2	1.09	-0.274
21	MAGEA8 (GeneID 4107)	0.733	1.86	1.18
22	BBS4 (GeneID 585)	-0.843	-0.874	-0.475
23	CYP4F8 (GeneID 11283)	-0.611	-0.44	-1.31
24	PALM3 (GeneID 342979)	0.581	0.823	0.127
25	SUGP1 (GeneID 57794)	0.302	-0.269	0.25
26	RAI1 (GeneID 10743)	0.97	-0.0774	1.79
27	CNPY3 (GeneID 10695)	1.2	-0.279	0.714
28	MSL3B (GeneID 151507)	1.34	0.356	0.191

In a second layout: results already given.
SIGLEC10 (GeneID 89790): robust z-score, replicate 1 = -0.208; robust z-score, replicate 2 = -1.41; robust z-score, replicate 3 = -0.016
TMEM40 (GeneID 55287): robust z-score, replicate 1 = 0.777; robust z-score, replicate 2 = 1.95; robust z-score, replicate 3 = 0.88
RPGRIP1 (GeneID 57096): robust z-score, replicate 1 = 1.06; robust z-score, replicate 2 = 0.0209; robust z-score, replicate 3 = 0.0149
TPP2 (GeneID 7174): robust z-score, replicate 1 = 1.83; robust z-score, replicate 2 = 3.2; robust z-score, replicate 3 = 1.54
LHX3 (GeneID 8022): robust z-score, replicate 1 = -0.619; robust z-score, replicate 2 = -0.319; robust z-score, replicate 3 = 0.159

The results go on.
no.	Gene	robust z-score, replicate 1	robust z-score, replicate 2	robust z-score, replicate 3
29	MAST1 (GeneID 22983)	0.975	0.577	-0.211
30	DLG1 (GeneID 1739)	0.383	0.609	0.119
31	PLD2 (GeneID 5338)	-0.386	-0.211	-0.202
32	LOC389048 (retired record) (GeneID 389048)	0.0751	-0.0576	-0.215
33	MRPL48 (GeneID 51642)	-0.801	-0.563	-0.353
34	FLJ46365 (retired record) (GeneID 401459)	-1.96	-1.95	-1.82
35	CNN3-DT (GeneID 729970)	0.992	0.838	1.14
36	TUSC3 (GeneID 7991)	0.295	0.845	0.852
37	TMEM161B (GeneID 153396)	-0.586	-1.78	-0.481
38	OR10Z1 (GeneID 128368)	0.63	0.261	0.727
39	LOC441921 (retired record) (GeneID 441921)	-0.389	-0.164	-0.464
40	ORM1 (GeneID 5004)	2.01	1.51	1.56
41	LAMP5 (GeneID 24141)	1.76	1.77	2.17
42	PIP5K1C (GeneID 23396)	0.56	-0.0776	0.00158
43	SEPTIN3 (GeneID 55964)	0.156	-0.677	-0.421
44	ABL2 (GeneID 27)	4.18 (active)	2.59	4.17
45	GALNT16 (GeneID 57452)	-1.46	0.677	-1.51
46	BMPR1A (GeneID 657)	0.871	-0.232	0.877
